Test results reported in patent US11851421B2, “Near-infrared cyanine dyes and conjugates thereof” (BRACCO IMAGING S.P.A., priority 2020, dated 2023).
For at least one compound, name, drawing or mass did not settle the structure.

Assay: Optical properties: excitation/emission maxima and absolute fluorescence quantum yield
Assay type: physicochemical
Protocol: A dual-beam UV-VIS spectrophotometer (Lambda 40, Perkin Elmer) was used to determine the absorbance (Abs) of the compounds of the invention. Emission/excitation (Em/Ex) spectra and absolute fluorescence quantum yield (ϕ) measurements were carried out on a spectrofluorometer (FluoroLog-3 1IHR-320, Horiba Jobin Yvon) equipped with an F-3018 integrating sphere accessory. The measurements were performed using an excitation wavelength at maximum absorbance of different dyes, and the sample was excited with a 450 W Xenon Light Source. Detection was performed by photomultiplier tubes (PMT-NIR) cooled detector or by TBX-04 detector. Dye solutions were carefully prepared to have an absorbance lower than 0.1 (optical densities) to minimize re-absorption phenomena.
The compounds of the invention have been characterized in terms of their optical properties in vitro in aqueous medium (i.e., water/PBS pH 7.4) and in a clinical chemistry control serum (Seronorm, Sero SA), mimicking the chemical composition and optical properties of human serum. All dye or dye-conjugate solutions were freshly prepared. ICG and S0456 were used as commercial references.
In particular, the excitation and emission maxima and the absolute fluorescence quantum yield (Φ) of representative compounds of formula (I) and conjugates of formula (II) are shown in Table II.

Compound: CC1(C)C(/C=C/C2=C(Oc3ccc(S(=O)(=O)O)cc3)C(=C/C=C3/N(CCCCCC(=O)O)c4ccc(C(=O)NCC(O)C(O)C(O)C(O)CO)cc4C3(C)C)/CCC2)=[N+](CCCCS(=O)(=O)[O-])c2ccc(C(=O)NCC(O)C(O)C(O)C(O)CO)cc21 (stereo not shown) [Compound 15]
- Max Em (emission maximum) (PBS pH 7.4): 804 nm
- Max Ex (excitation maximum) (PBS pH 7.4): 781 nm
- Φ (absolute fluorescence quantum yield) (PBS pH 7.4): 5.4%
- Φ (absolute fluorescence quantum yield) (Seronorm (clinical chemistry control serum)): 8.2%
